# Assay results as given in PubChem BioAssay AID687001 (Broad Institute, 2013).
# The chains behind the UniProt entries cited, without tags or fusion partners. Where a name states a change or a piece, a line headed by the entry shows the natural chain unless it says otherwise.
# UniProt P26447: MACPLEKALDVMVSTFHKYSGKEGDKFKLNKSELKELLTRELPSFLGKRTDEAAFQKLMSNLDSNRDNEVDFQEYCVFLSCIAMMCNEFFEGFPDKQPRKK
# Inconclusive results, whose numbers are uncertain, are shown with a selection of clear calls. Active and inactive are the calls of the source.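 How the source made its calls: active means signal-lowering compounds whose fitted half-maximal concentration is at or below twice the top tested dose in every run; inconclusive means runs disagree, flat 30 to 70% inhibition, or poor curve fit; inactive means the rest.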
# Molecular target: Protein S100-A4 (Homo sapiens) (UniProt P26447)
# Assay: human S100A4 peptide interaction inhibition curves – biochemical, fluorescence polarization, cherry-picked hits, dose response (AID 687001);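 further: 0% = DMSO neutral control wells and -100% = TFP positive control wells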
# Conditions: FP, S100A4/TAMRA-myosin IIA peptide binding; at 11 µM (top of the series)
row,Compound,"activity change, negative = inhibition"
1,Cc1cc(OCC(=O)NNC(=O)CCc2ccccc2)ccc1Br,inconclusive: 24.2%
2,CC(=O)N(C)C[C@@H]1Oc2cc(C#CCC(C)C)ccc2S(=O)(=O)N([C@H](C)CO)C[C@@H]1C,inactive: -2.48%
3,COc1ccccc1C(=O)COC(=O)CN1C(=O)NC2(CCCC2)C1=O,inconclusive: 1.14%
4,Cc1c(OCC(=O)NCCCN2CCCC2=O)ccc2c3c(c(=O)oc12)CCC3,inconclusive: -4.61%
5,CN(CC1CCCN(CCc2ccc(Cl)cc2)C1)C(=O)CC(F)(F)F (stereo not given),inactive: -1.92%
